Values from PubChem BioAssay AID504784 (Drosophila RNAi Screening Center, 2011).
The deposit covers about 17,000 reagents; this is an unselected part of those with a known target gene and a result. 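Each column is one replicate's B-score; the combined score over replicates was not deposited, so single values may mislead.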 The numbers tell different reagents against one gene apart. A plus sign joins genes that one reagent is predicted to hit.

Aim: 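Search for regulators of lipid droplet storage in oleate-fed fly cells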 (primary screen)
Cells: Drosophila Kc167 embryonic cells
Reagent: long dsRNA against Drosophila genes, about 250 ng dsRNA per well
Timing: 4 days
Challenge: cells fed 400 µM oleic acid bound to BSA
Read-out: 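Microscope images give a droplet-to-nucleus area ratio, taken as log and converted to a screen-wide B-score; higher values mean greater lipid storage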
Scale: droplet/nuclear area B-score: higher = more stored lipid (overstorage)

no.	gene knocked down	dsRNA no.	droplet/nuclear area B-score, replicate 1	droplet/nuclear area B-score, replicate 2	droplet/nuclear area B-score, replicate 3
1	wge	1	-1.83	0.201	
2	wge	2	-0.0234	1.87	
3	CG32106	1	-0.674	0.00446	
4	CheB53a	1	-0.44	2.86	
5	Taf1	1	-1.88	-2.23	
6	CG2126	1	-0.958	-0.463	
7	TwdlD	1	1.46	3.04	
8	Acbp1	1	-2.67	-0.397	
9	CG31268	1	0.00469	0.361	
10	IKKbeta	1	-0.0751	3.76	
11	gammaCOP	1	6.68	5.2	
12	CG15882	1	-0.11	-0.984	
13	CG12498	1	-0.227	0.435	
14	CAH2	1	-0.305	-0.454	
15	Slob (retired record)	1	-2.35	-0.0314	
16	CG2818	1	-0.424	-0.682	
17	CG34051	1	-0.252	-1.97	
18	CG10793	1	2.8	0.785	
19	CG31917 + Tfb5	1	0.00942	-2.45	
20	CG31917 + Tfb5	2	-0.563	0.391	
21	CG30286	1	-0.2	-0.465	
22	Indy	1	-1.42	0.319	-0.0267
23	U2af38	1	1.92	-3.52	
24	CG15269	1	-0.885	-1.64	
25	CG13043	1	-2.06	-1.28	
26	mtSSB	1	-0.337	0.853	
27	mRpL41	1	-0.0564	1.71	
28	CG3857	1	-0.0529	-0.681	
29	CheB53b	1	1.04	0.312	
30	dila	1	-2.24	0.0326	
31	yellow-g	1	0.8	-1.78	
32	PAPLA1	1	1.54	0.174	
33	PAPLA1	2	-0.00702	-0.565	
34	lmd	1	-0.967	-0.204	
35	MESR4	1	0.00856	0.181	
36	Eip63F-1	1	-0.076	-1.25	
37	CG12784	1	0.0421	0.354	
38	Tango6	1	0.868	-0.12	
39	CG34450	1	-0.0642	0.49	1.79
40	Srrm234	1	-0.0734	-1.18	
41	Srrm234	2	-0.0293	1.11	
42	CG13791 (retired record)	1	-1.57	0.46	
43	CG4372	1	0.539	-0.19	
44	CG44251	1	-0.0315	-0.461	
45	CG14624	1	0.0182	-0.432	
46	CG14306 (retired record)	1	2.03	2.13	
47	Cyfip	1	1.94	-0.1	
48	CG32219	1	2.94	2.2	
49	Mppe	1	0.12	-1.22	
50	Imp	1	-0.688	0.587	
51	Imp	2	-1.3	-0.423	-0.0568
52	Pfrx	1	0.61	-0.316	
53	Pfrx	2	-0.147	-0.0492	
54	CG5021	1	0.0472	-1.07	
55	NaCP60E	1	0.312	0.461	
56	NaCP60E	2	1.05	0.00742	
57	CG1545	1	2.68	2.2	
58	CG33137	1	-0.000971	-1.79	
59	CG6980	1	2.54	-0.0893	
60	tmod	1	0.546	0.254	
61	tmod	2	-0.188	1.29	
62	tmod	3	-1.19	1.02	
63	Gr92a	1	-0.00998	-0.217	
64	ND-51L2	1	0.219	1.81	
65	CG14448	1	1.26	-1.8	
66	CG15553	1	0.0479	-1.53	
67	Su(var)3-9	1	0.825	1.13	
68	mthl8	1	0.0246	-1.54	
69	mthl8	2	-0.779	0.853	
70	Phk-3	1	0.423	-1.01	
71	CG7133	1	0.948	-0.181	0.281
72	m-cup	1	-0.673	-0.058	
73	Snx27	1	-0.36	0.798	
74	Snx27	2	0.234	0.518	
75	Snx27	3	2.29	0.493	
76	CG3088	1	0.359	-1.01	
77	eIF3h	1	0.879	-0.515	
78	ArgRS	1	-0.759	-1.03	
79	CG4577	1	-0.0611	-0.683	
80	Cht12	1	-0.388	-0.197	
81	Irbp	1	-0.606	-0.00449	
82	Irbp	2	-1.07	0.768	
83	yellow-d	1	-0.0678	-0.827	

10 consecutive entries from above:
no.	gene knocked down	dsRNA no.	droplet/nuclear area B-score, replicate 1	droplet/nuclear area B-score, replicate 2	droplet/nuclear area B-score, replicate 3
60	tmod	1	0.546	0.254	
61	tmod	2	-0.188	1.29	
62	tmod	3	-1.19	1.02	
63	Gr92a	1	-0.00998	-0.217	
64	ND-51L2	1	0.219	1.81	
65	CG14448	1	1.26	-1.8	
66	CG15553	1	0.0479	-1.53	
67	Su(var)3-9	1	0.825	1.13	
68	mthl8	1	0.0246	-1.54	
69	mthl8	2	-0.779	0.853	
